# Measurements reported in PubChem BioAssay AID1224826 (NIAID, 2016)
# Assay: 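Regulators of Tlr4 signalling leading to Tnf-alpha expression in macrophages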 (primary screen)
# Cell system: RAW264.7 G9 macrophages from mouse bearing reporters for p65 (GFP) and the Tnf promoter (mCherry)
# Reagents: siRNA pool against mouse genes, 100 nM
# Timing: 16 h of LPS stimulation, after 2 days of siRNA transfection
# Challenge: bacterial lipopolysaccharide (Salmonella minnesota R595), 10 ng/ml
# Measurement: 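Imaged Tnf reporter mCherry in nuclei, minus background, normalised per plate to the median and expressed as robust z-scores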
# Reading the numbers: Tnf reporter robust z-score: higher = stronger Tnf promoter reporter signal after LPS
# Rule for the call: 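a well counts as active at a score of -1.3 or below (Tlr4 knock-down control median) or above 3 (raised signal); controls and wells holding fewer than 50 cells are excluded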
# Calls: active = Tnf reporter clearly lowered or raised; inactive = no clear change in Tnf reporter
# Here is a random part of about 17,000 reagents. Of all reagents, about 1,110 (6.6%) are marked active. 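Active means lowered or raised reporter signal; replicate intensities are raw and not normalised per plate.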 Further read-outs or replicates are left out here. Reagent sequences are not shown.
gene symbol,Tnf reporter robust z-score,fewer than 50 cells in well,outcome
"Cnot11 (CCR4-NOT transcription complex, subunit 11)",0.39,enough cells in well,inactive
Cd151 (CD151 antigen),0.2,enough cells in well,inactive
Dhrs11 (dehydrogenase/reductase 11),-1.44,enough cells in well,active
Pdzd11 (PDZ domain containing 11),0.05,enough cells in well,inactive
4930447C04Rik (RIKEN cDNA 4930447C04 gene),2.58,enough cells in well,inactive
Mgst1 (microsomal glutathione S-transferase 1),0.52,enough cells in well,inactive
"Gtf2a1l (general transcription factor IIA, 1-like)",-0.94,enough cells in well,inactive
Ddost (dolichyl-di-phosphooligosaccharide-protein glycotransferase),,fewer than 50 cells per well; well left out of calls,inactive
Zfp2 (zinc finger protein 2),-0.19,enough cells in well,inactive
Trafd1 (TRAF type zinc finger domain containing 1),-0.44,enough cells in well,inactive
Trappc3 (trafficking protein particle complex 3),0.92,enough cells in well,inactive
Kyat1 (kynurenine aminotransferase 1),-0.61,enough cells in well,inactive
Agr3 (anterior gradient 3),-0.17,enough cells in well,inactive
Or6c69b (olfactory receptor family 6 subfamily C member 69B),2.53,enough cells in well,inactive
Or10ag57 (olfactory receptor family 10 subfamily AG member 57),-0.7,enough cells in well,inactive
"Eif4g3 (eukaryotic translation initiation factor 4 gamma, 3)",-1.34,enough cells in well,active
Tmem128 (transmembrane protein 128),2.2,enough cells in well,inactive
Pcolce2 (procollagen C-endopeptidase enhancer 2),-0.55,enough cells in well,inactive
Acaa2 (acetyl-CoA acyltransferase 2),0.41,enough cells in well,inactive
D930048N14Rik (RIKEN cDNA D930048N14 gene),0.32,enough cells in well,inactive
"Smpd3 (sphingomyelin phosphodiesterase 3, neutral)",1.23,enough cells in well,inactive
"Aifm2 (apoptosis-inducing factor, mitochondrion-associated 2)",0.91,enough cells in well,inactive
Ldb3 (LIM domain binding 3),0.02,enough cells in well,inactive
Prf1 (perforin 1 (pore forming protein)),-0.65,enough cells in well,inactive
Zfp612 (zinc finger protein 612),0.21,enough cells in well,inactive
1700067K01Rik (RIKEN cDNA 1700067K01 gene),1.53,enough cells in well,inactive
Cox8a (cytochrome c oxidase subunit 8A),-0.15,enough cells in well,inactive
Flt3l (FMS-like tyrosine kinase 3 ligand),-0.23,enough cells in well,inactive

8 entries from above in another layout.
gene symbol | Tnf reporter robust z-score | fewer than 50 cells in well | outcome
Ddost (dolichyl-di-phosphooligosaccharide-protein glycotransferase) | – | fewer than 50 cells per well; well left out of calls | inactive
Zfp2 (zinc finger protein 2) | -0.19 | enough cells in well | inactive
Trafd1 (TRAF type zinc finger domain containing 1) | -0.44 | enough cells in well | inactive
Trappc3 (trafficking protein particle complex 3) | 0.92 | enough cells in well | inactive
Kyat1 (kynurenine aminotransferase 1) | -0.61 | enough cells in well | inactive
Agr3 (anterior gradient 3) | -0.17 | enough cells in well | inactive
Or6c69b (olfactory receptor family 6 subfamily C member 69B) | 2.53 | enough cells in well | inactive
Or10ag57 (olfactory receptor family 10 subfamily AG member 57) | -0.7 | enough cells in well | inactive

More records follow:
gene symbol,Tnf reporter robust z-score,fewer than 50 cells in well,outcome
Or8c10 (olfactory receptor family 8 subfamily C member 10),,fewer than 50 cells per well; well left out of calls,inactive
Zfp42 (zinc finger protein 42),-0.61,enough cells in well,inactive
LOC277923 (retired record),0.22,enough cells in well,inactive
Btbd10 (BTB domain containing 10),-0.32,enough cells in well,inactive
Hs1bp3 (HCLS1 binding protein 3),-1.47,enough cells in well,active
Grsf1 (G-rich RNA sequence binding factor 1),0.23,enough cells in well,inactive
Rnase2a,,fewer than 50 cells per well; well left out of calls,inactive
Or11j4 (olfactory receptor family 11 subfamily J member 4),,fewer than 50 cells per well; well left out of calls,inactive
Snx18 (sorting nexin 18),,fewer than 50 cells per well; well left out of calls,inactive
Or9s15 (olfactory receptor family 9 subfamily S member 15),-1.21,enough cells in well,inactive
Banp (BTG3 associated nuclear protein),-0.41,enough cells in well,inactive
Fbxo45 (F-box protein 45),0.54,enough cells in well,inactive
Elovl3 (ELOVL fatty acid elongase 3),-0.12,enough cells in well,inactive
Tnrc6a (trinucleotide repeat containing 6a),,fewer than 50 cells per well; well left out of calls,inactive
Rgs9bp (regulator of G-protein signalling 9 binding protein),0.83,enough cells in well,inactive
Slc25a26,1.01,enough cells in well,inactive
Il1rl1 (interleukin 1 receptor-like 1),-0.16,enough cells in well,inactive
Cdk16 (cyclin dependent kinase 16),0.16,enough cells in well,inactive
Enpep (glutamyl aminopeptidase),0.02,enough cells in well,inactive
Immp1l,0.17,enough cells in well,inactive
Ecsit (ECSIT signalling integrator),1.85,enough cells in well,inactive
Nmd3 (NMD3 ribosome export adaptor),-1.37,enough cells in well,active
Fcrla (Fc receptor-like A),0.68,enough cells in well,inactive
Phax (phosphorylated adaptor for RNA export),1.18,enough cells in well,inactive
"Uba1y (ubiquitin-activating enzyme, Chr Y)",,fewer than 50 cells per well; well left out of calls,inactive
Enam (enamelin),0.34,enough cells in well,inactive
Or1f12 (olfactory receptor family 1 subfamily F member 12),0.45,enough cells in well,inactive
Chn1 (chimerin 1),-1.1,enough cells in well,inactive
Pbp2 (phosphatidylethanolamine binding protein 2),0.39,enough cells in well,inactive
Faxc (failed axon connections homolog),0.95,enough cells in well,inactive
